The list shows a part of the results. The data scatter; read single values as rough.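 Many melting curves are irregular; where none melted, Tm was taken as 64 °C.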
Compound: CCc1cnccc1C(=O)Nc1cc2c(cc1F)NC(=O)CC2
Test: melting temperature shift (DMSO Tm minus MBE1-treated Tm) in cellular thermal proteome profiling; higher = less thermal stabilization by MBE1 (negative = stabilized by MBE1)
Conditions: A375

Sequences of proteins named here, by UniProt entry; tags and fusion partners are left off. A change or cut given only in a name is not applied to a line headed by its entry.
UniProt Q01970, whole entry: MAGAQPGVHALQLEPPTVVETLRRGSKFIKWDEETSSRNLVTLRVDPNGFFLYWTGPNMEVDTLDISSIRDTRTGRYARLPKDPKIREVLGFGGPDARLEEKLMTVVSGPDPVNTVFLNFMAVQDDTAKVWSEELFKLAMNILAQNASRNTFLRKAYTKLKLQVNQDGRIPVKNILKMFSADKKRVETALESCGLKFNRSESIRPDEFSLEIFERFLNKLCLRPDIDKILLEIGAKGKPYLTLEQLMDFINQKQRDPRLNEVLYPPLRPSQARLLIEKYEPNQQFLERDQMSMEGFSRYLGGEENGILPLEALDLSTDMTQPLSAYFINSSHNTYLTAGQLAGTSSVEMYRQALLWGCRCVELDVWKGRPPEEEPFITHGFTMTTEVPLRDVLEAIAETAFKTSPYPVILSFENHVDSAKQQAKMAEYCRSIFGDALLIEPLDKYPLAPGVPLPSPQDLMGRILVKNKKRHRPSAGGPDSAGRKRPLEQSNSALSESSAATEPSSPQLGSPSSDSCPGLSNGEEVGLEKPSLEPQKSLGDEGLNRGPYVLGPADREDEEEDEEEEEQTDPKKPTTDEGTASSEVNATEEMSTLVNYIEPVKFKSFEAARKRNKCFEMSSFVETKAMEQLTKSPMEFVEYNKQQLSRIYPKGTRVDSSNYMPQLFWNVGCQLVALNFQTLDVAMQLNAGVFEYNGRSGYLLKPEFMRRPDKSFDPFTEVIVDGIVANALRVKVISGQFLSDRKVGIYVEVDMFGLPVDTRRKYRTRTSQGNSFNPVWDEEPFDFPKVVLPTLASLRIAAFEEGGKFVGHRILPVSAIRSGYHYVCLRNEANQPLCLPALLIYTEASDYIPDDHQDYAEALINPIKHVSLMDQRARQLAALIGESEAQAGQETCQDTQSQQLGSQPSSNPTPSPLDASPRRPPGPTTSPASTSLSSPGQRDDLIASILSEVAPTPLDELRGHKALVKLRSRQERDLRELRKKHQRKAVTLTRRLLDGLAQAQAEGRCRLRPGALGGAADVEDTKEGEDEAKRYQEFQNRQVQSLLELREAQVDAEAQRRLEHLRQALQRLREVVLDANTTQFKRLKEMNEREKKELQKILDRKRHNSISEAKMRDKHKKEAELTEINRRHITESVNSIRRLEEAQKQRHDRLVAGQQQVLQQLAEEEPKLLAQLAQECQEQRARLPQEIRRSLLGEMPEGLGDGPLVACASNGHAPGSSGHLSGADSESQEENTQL
UniProt Q10567: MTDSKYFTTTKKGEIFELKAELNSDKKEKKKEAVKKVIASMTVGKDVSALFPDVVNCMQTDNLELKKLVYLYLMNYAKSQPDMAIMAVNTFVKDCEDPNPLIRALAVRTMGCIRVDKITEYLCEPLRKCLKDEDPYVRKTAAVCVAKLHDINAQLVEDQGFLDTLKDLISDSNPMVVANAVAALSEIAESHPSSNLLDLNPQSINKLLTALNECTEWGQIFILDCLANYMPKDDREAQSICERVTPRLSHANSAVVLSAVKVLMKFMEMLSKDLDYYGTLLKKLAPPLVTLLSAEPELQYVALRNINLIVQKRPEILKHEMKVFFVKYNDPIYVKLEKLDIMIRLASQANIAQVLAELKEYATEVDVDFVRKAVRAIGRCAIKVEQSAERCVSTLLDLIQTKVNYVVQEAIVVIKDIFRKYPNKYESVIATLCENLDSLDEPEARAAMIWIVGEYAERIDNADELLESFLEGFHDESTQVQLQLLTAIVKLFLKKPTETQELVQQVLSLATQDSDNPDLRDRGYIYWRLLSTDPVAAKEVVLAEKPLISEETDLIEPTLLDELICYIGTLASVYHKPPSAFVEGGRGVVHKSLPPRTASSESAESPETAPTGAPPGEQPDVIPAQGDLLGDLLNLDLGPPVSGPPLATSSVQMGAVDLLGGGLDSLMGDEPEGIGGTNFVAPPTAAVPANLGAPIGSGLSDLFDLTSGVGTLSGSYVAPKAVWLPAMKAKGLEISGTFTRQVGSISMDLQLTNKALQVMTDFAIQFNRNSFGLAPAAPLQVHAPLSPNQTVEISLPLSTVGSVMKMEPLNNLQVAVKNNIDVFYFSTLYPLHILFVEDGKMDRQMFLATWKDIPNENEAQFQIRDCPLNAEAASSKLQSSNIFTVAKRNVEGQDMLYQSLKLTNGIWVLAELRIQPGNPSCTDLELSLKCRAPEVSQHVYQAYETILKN
UniProt Q06546: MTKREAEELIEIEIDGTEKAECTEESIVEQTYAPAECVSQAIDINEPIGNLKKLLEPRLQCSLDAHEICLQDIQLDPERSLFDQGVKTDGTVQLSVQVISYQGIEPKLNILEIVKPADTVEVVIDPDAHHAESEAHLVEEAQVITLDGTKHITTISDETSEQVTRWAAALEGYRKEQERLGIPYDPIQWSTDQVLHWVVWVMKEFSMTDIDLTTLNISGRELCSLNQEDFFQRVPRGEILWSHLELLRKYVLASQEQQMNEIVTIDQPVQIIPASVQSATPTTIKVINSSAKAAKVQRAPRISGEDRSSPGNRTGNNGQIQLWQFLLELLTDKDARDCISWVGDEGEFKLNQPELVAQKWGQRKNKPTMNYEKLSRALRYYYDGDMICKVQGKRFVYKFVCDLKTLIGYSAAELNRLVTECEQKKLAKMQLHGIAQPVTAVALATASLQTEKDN
UniProt P78312: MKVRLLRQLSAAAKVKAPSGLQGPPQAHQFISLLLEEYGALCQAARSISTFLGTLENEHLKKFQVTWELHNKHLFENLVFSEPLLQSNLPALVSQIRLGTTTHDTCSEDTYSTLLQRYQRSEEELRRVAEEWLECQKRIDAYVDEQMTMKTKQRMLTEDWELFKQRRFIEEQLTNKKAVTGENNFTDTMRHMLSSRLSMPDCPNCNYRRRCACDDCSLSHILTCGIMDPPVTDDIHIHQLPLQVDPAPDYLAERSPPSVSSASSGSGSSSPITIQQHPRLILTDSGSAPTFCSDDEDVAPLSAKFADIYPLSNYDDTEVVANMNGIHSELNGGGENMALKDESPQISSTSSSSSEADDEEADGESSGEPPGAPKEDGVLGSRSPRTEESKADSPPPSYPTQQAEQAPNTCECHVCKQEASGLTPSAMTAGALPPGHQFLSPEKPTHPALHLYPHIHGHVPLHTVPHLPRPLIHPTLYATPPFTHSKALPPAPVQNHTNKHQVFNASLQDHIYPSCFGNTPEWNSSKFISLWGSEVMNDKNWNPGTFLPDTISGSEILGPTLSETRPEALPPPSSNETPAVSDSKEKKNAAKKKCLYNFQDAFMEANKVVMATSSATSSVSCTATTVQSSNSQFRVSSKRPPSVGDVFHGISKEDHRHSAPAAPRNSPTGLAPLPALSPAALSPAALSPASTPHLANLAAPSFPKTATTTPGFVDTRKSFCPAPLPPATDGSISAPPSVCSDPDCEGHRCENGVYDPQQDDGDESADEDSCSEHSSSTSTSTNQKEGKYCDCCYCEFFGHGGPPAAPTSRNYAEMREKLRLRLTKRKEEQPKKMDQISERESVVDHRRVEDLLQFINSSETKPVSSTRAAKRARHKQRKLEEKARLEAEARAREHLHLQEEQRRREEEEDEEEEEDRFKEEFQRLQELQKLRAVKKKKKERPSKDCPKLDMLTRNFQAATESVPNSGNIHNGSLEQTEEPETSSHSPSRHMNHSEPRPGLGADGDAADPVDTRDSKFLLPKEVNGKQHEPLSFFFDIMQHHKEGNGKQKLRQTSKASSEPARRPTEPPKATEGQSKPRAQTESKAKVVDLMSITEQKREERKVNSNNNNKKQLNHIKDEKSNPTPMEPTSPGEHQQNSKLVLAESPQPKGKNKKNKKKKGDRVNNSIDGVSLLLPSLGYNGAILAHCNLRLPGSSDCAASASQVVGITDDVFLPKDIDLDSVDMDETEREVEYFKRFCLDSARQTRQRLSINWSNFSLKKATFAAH
UniProt Q04206, whole entry: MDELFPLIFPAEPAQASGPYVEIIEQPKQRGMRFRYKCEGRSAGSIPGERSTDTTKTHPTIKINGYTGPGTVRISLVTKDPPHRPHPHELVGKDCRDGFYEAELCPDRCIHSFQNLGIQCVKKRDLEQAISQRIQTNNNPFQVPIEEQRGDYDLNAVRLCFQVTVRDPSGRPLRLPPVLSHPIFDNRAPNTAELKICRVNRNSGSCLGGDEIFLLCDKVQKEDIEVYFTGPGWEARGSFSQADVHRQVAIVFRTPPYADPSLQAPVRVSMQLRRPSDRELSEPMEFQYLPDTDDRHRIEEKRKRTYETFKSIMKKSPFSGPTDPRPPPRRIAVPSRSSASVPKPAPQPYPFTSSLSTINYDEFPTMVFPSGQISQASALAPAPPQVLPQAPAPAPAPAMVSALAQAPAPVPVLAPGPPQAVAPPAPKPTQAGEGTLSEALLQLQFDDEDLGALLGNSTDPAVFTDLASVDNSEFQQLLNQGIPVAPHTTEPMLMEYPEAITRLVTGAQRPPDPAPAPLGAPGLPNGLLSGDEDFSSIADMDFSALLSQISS
UniProt Q00059: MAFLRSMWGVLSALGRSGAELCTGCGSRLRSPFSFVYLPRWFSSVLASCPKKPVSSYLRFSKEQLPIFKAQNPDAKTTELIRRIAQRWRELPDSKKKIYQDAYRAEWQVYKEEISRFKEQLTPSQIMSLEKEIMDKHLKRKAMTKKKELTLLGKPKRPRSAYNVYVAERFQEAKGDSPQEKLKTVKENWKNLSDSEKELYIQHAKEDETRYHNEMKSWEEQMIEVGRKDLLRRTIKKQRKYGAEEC
UniProt Q06033: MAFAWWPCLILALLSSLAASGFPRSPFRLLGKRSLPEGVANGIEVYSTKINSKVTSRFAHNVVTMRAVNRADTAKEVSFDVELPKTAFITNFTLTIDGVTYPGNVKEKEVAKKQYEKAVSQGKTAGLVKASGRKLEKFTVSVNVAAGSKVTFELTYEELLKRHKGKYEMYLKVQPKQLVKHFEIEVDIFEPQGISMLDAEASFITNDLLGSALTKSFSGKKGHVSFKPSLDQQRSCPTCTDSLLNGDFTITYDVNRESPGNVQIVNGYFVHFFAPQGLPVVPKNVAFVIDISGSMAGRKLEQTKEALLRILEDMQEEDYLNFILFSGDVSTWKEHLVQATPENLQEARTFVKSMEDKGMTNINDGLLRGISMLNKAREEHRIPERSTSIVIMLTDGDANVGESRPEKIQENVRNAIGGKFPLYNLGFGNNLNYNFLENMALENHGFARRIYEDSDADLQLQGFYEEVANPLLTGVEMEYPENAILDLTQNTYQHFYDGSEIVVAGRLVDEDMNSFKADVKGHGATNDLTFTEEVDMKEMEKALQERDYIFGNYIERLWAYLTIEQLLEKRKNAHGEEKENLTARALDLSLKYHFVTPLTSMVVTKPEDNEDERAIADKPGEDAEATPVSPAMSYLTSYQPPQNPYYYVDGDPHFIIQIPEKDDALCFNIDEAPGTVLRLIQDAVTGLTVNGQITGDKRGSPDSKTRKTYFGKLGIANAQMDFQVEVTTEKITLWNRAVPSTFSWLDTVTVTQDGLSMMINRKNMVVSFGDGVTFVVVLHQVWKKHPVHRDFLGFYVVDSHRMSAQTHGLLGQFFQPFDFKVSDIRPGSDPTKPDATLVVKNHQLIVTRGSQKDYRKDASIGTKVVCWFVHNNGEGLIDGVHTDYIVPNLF
UniProt Q04323: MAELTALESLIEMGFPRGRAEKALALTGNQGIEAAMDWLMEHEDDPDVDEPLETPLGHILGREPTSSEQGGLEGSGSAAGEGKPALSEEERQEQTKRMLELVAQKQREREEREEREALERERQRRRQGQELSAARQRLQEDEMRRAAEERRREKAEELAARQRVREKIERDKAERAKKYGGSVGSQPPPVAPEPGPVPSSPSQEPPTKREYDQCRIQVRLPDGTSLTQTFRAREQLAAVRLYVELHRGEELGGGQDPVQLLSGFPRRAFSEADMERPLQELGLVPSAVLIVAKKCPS
UniProt Q06587: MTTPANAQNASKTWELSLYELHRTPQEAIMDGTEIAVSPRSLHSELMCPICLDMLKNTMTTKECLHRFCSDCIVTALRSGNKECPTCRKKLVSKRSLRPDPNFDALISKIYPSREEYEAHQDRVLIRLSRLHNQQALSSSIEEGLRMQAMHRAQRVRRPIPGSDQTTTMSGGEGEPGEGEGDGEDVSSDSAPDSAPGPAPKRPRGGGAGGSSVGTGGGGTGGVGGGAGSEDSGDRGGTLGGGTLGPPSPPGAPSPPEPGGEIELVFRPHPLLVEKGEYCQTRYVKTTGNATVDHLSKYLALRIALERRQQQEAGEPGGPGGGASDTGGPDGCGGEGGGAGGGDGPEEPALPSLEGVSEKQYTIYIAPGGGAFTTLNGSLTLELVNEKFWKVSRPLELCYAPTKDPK
UniProt Q12981: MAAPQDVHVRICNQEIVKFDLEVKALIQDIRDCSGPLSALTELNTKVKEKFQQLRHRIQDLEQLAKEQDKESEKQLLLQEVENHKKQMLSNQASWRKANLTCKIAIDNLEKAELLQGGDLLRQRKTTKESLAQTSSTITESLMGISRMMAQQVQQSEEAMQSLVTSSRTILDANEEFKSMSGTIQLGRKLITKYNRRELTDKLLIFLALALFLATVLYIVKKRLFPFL

Row | Target | melting temperature shift (MBE1 concentration: 100 nM) [°C] | melting temperature shift (MBE1 concentration: 1 uM) [°C]
1 | SSRP1 (UniProt Q08945) | -0.308 | -0.384
2 | RBM6 (UniProt P78332) | -0.192 | -0.359
3 | SRSF1 (UniProt Q07955) | -1.33 | 0.873
4 | RPL18 (UniProt Q07020) | -0.311 | -0.104
5 | PLCB3 (UniProt Q01970) | -0.202 | -0.00611
6 | TWF1 (UniProt Q12792) | -0.583 | 0.496
7 | UniProt Q09328 | -2.45 | 2.21
8 | NSUN2 (UniProt Q08J23) | -1.22 | -1.27
9 | CAMSAP2 (UniProt Q08AD1) | 0.403 | 0.568
10 | MRPS25 (UniProt P82663) | -1.18 | -0.715
11 | PPP1R8 (UniProt Q12972) | 0.965 | 0.403
12 | AP1B1 (UniProt Q10567) | 0.147 | 0.543
13 | SMARCB1 (UniProt Q12824) | -0.301 | -0.211
14 | ADAM17 (UniProt P78536) | -0.758 | -0.456
15 | TMEM115 (UniProt Q12893) | -0.397 | -0.263
16 | GABPA (UniProt Q06546) | -1.43 | -0.725
17 | UniProt Q01469 | -0.311 | -0.904
18 | RAD51 (UniProt Q06609) | -0.293 | 0.22
19 | SCRN3 (UniProt Q0VDG4) | -0.511 | 0.177
20 | FKBP3 (UniProt Q00688) | -0.772 | -0.215
21 | RPL6 (UniProt Q02878) | -1.67 | -1.32
22 | NUP160 (UniProt Q12769) | 0.763 | 0.281
23 | UniProt Q00537 | 0.119 | 1.02

Row | Target | melting temperature shift (MBE1 concentration: 100 nM) [°C] | melting temperature shift (MBE1 concentration: 1 uM) [°C]
24 | FMR1 (UniProt Q06787) | 0.672 | -0.238
25 | GOLGA2 (UniProt Q08379) | -0.267 | -0.622
26 | NFX1 (UniProt Q12986) | 0.861 | -0.281
27 | UniProt P78312 | -1.09 | 2.06
28 | NFKB2 (UniProt Q00653) | -0.679 | -1.05
29 | TMF1 (UniProt P82094) | -1.66 | 0.404
30 | SORD (UniProt Q00796) | -1.01 | 0.337
31 | RELA (UniProt Q04206) | 0.592 | -0.147
32 | UniProt Q12929 | 0.182 | 0.0272
33 | NOTCH2 (UniProt Q04721) | -1.14 | -0.416
34 | AKAP13 (UniProt Q12802) | 1.11 | 0.415
35 | ILF2 (UniProt Q12905) | -1.5 | 1.34
36 | HSPA14 (UniProt Q0VDF9) | -0.315 | -0.885
37 | OGDH (UniProt Q02218) | 1.06 | 0.562
38 | UniProt Q12765 | 0.348 | 0.501
39 | UniProt Q01831 | -0.416 | -0.301
40 | SSBP1 (UniProt Q04837) | -3.75 | -3.38
41 | UniProt Q01196 | -0.433 | -0.641
42 | RPL19 (UniProt P84098) | -1.66 | -4.35
43 | TFAM (UniProt Q00059) | -2.64 | -2.01
44 | UniProt Q03113 | 1.22 | -1.01
45 | DHX9 (UniProt Q08211) | 1.11 | 0.305
46 | MRPS5 (UniProt P82675) | 2.18 | 1.12

Row | Target | melting temperature shift (MBE1 concentration: 100 nM) [°C] | melting temperature shift (MBE1 concentration: 1 uM) [°C]
47 | UniProt Q06033 | -2.58 | -0.319
48 | ELP6 (UniProt Q0PNE2) | -2.61 | -2.54
49 | CDC20 (UniProt Q12834) | 0.953 | 1.71
50 | MCL1 (UniProt Q07820) | 1.81 | 2.05
51 | MRPS10 (UniProt P82664) | 1.22 | 1.36
52 | UBXN1 (UniProt Q04323) | 0.782 | 1.18
53 | UniProt Q07890 | -0.974 | 0.782
54 | EWSR1 (UniProt Q01844) | -6.09 | -0.782
55 | CEBPZ (UniProt Q03701) | -0.617 | -0.118
56 | UniProt P80404 | -1.83 | -0.384
57 | FAM3A (UniProt P98173) | -0.387 | 0.208
58 | MVK (UniProt Q03426) | 0.221 | 0.925
59 | RING1 (UniProt Q06587) | -0.391 | -0.397
60 | UniProt P78559 | -0.844 | 0.195
61 | XIAP (UniProt P98170) | -0.762 | -0.969
62 | CXADR (UniProt P78310) | 0.574 | -0.0317
63 | TYRO3 (UniProt Q06418) | -1.02 | -0.835
64 | BNIP1 (UniProt Q12981) | -0.248 | -0.396
65 | UniProt P84074 | -1.3 | -0.698
66 | AIMP1 (UniProt Q12904) | 0.0941 | 0.282
67 | ARHGAP5 (UniProt Q13017) | -0.423 | -0.0706
68 | NFIA (UniProt Q12857) | 0 | 21.2
69 | MRPS6 (UniProt P82932) | 3.61 | 2.4

Laid out differently: results already given.

| Row | Target | melting temperature shift (MBE1 concentration: 100 nM) [°C] | melting temperature shift (MBE1 concentration: 1 uM) [°C] |
| --- | --- | --- | --- |
| 47 | UniProt Q06033 | -2.58 | -0.319 |
| 48 | ELP6 (UniProt Q0PNE2) | -2.61 | -2.54 |
| 50 | MCL1 (UniProt Q07820) | 1.81 | 2.05 |
| 51 | MRPS10 (UniProt P82664) | 1.22 | 1.36 |
| 52 | UBXN1 (UniProt Q04323) | 0.782 | 1.18 |
| 53 | UniProt Q07890 | -0.974 | 0.782 |
| 54 | EWSR1 (UniProt Q01844) | -6.09 | -0.782 |
| 55 | CEBPZ (UniProt Q03701) | -0.617 | -0.118 |
| 56 | UniProt P80404 | -1.83 | -0.384 |
| 57 | FAM3A (UniProt P98173) | -0.387 | 0.208 |
| 58 | MVK (UniProt Q03426) | 0.221 | 0.925 |
| 59 | RING1 (UniProt Q06587) | -0.391 | -0.397 |
| 61 | XIAP (UniProt P98170) | -0.762 | -0.969 |
| 62 | CXADR (UniProt P78310) | 0.574 | -0.0317 |
| 63 | TYRO3 (UniProt Q06418) | -1.02 | -0.835 |
| 66 | AIMP1 (UniProt Q12904) | 0.0941 | 0.282 |
| 67 | ARHGAP5 (UniProt Q13017) | -0.423 | -0.0706 |
| 68 | NFIA (UniProt Q12857) | 0 | 21.2 |
| 69 | MRPS6 (UniProt P82932) | 3.61 | 2.4 |

From the supplement of paper PMC12595434, “Development of retinoid nuclear receptor pathway antagonists through targeting aldehyde dehydrogenase 1A3” (iScience, 2025)
